Experimental data from publication PMC8910697, “Development of VPC-70619, a Small-Molecule N-Myc Inhibitor as a Potential Therapy for Neuroendocrine Prostate Cancer” (International Journal of Molecular Sciences, 2022).
Results are given in words; binding and its absence hold for the method and conditions named. In cells and extracts the contact can be indirect. A result given as binding can be weak or reduced; the word gives no strength.

Sequences of proteins named here, by UniProt entry; tags and fusion partners are left off. A change or cut given only in a name is not applied to a line headed by its entry. Residues count along the entry.
UniProt P04198: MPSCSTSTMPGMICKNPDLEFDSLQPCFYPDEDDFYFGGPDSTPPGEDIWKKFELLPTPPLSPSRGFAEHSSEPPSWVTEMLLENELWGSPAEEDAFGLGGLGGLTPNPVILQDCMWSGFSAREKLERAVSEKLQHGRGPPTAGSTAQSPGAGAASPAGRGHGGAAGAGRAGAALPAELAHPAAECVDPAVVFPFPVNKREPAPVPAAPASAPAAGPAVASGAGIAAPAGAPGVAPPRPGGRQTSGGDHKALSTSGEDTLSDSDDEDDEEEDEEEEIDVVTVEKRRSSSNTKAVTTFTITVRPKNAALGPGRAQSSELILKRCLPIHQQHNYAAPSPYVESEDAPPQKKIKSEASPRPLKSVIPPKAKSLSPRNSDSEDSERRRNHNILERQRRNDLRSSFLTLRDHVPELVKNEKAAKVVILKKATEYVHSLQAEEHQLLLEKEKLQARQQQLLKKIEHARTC
UniProt P61244, residues 12-93: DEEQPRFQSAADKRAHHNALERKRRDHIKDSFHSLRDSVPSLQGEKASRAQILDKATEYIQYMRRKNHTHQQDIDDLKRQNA

Target: bHLHLZ domain of N-Myc (amino acids 309–394) (UniProt P04198)
Experiment: co-purification (Ni-NTA IMAC, then size exclusion chromatography); His-N-Myc(309-394) and Max(12-93) co-expressed from pETDuet in E. coli BL21; lysate on Ni-NTA, eluted with 300 mM imidazole, 20 mM Tris pH 8, 500 mM NaCl; then Superdex 75

binding: binds
Substance: Max (amino acids 12–93) (from UniProt P61244 12-93) (domain or fragment)
